No constants are given. Whether binding was seen depends on the method and setting. Binding seen in cells or lysates may run through a third protein. A result given as binding can be weak or reduced; the word gives no strength. Where a sequence is shown, tags or fusion partners need not be part of it.
T1: flag-tagged mouse Tob1 (mouse) (UniProt Q61471)
T1 sequence: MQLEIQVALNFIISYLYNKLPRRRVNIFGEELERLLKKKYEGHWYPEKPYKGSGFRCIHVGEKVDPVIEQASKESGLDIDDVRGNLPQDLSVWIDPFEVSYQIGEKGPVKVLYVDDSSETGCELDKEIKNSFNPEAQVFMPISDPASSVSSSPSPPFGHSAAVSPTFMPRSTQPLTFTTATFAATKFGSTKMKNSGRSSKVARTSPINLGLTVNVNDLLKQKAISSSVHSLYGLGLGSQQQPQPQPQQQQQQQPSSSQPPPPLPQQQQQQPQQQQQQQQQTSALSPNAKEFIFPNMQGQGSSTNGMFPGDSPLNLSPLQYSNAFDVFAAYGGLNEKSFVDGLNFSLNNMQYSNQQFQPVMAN

T2: flag-tagged mouse Tob2 (mouse) (UniProt Q9JM55)
T2 sequence: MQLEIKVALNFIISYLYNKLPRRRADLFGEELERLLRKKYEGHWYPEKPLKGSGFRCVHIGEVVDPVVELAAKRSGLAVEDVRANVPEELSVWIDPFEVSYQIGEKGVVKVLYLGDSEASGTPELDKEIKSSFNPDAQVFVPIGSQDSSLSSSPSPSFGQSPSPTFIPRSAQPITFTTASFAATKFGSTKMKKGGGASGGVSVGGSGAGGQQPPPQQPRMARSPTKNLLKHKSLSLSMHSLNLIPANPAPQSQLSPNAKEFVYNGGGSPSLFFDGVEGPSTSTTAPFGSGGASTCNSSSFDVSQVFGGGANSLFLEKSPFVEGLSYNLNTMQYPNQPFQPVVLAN


Assays:
[1] = biological target: T1, flag-tagged mouse Tob1 (mouse); assay: co-IP; HEK293T cell extracts transfected with HA-tagged CPEB3 or ApCPEB together with flag-tagged mTob1 or mTob2
[2] = biological target: T2, flag-tagged mouse Tob2 (mouse); assay: as above
[3] = biological target: Transducer of Erb-B2 (Tob), endogenous in adult fly heads (Drosophila melanogaster (endogenous in adult fly heads)); assay: co-IP; adult fly head lysate (1-4 mg) in 1% Igepal buffer; anti-Tob serum (preimmune as control) and Protein-A agarose; unstimulated, 10 mM tyramine, serotonin, dTrpA1 activation, LimK mutant flies

| binding [1] | binding [2] | binding [3] | Molecule |
| --- | --- | --- | --- |
| binds | binds |  | HA-tagged Aplysia CPEB |
|  |  | binds | HA-tagged LimK, adult fly heads (enzyme, UniProt Q8IR79 1-1257) MHHQQRLRANGGRGGTGLGAGSGPVSGGHSPLCAHCRGQLLPHPEEPIVMALGQQWHCDCFRCSVCEGHLHNWYFEREGLLYCREDYYGRFGDACQQCMAVITGPVMVAGEHKFHPECFCCTACGSFIGEGESYALVERSKLYCGQCYGKRSCQPADAKARITTAGKPMHSIRLVEIPKDATPGLRVDGVALDDGCPTVRITDLFCNFFLWLTSMAEQCCGAPYRIDVNLTNLHIGDRILEVNGTPVSDSSVEQIDKLIRSNEKMLQLTVEHDPVQVCRSCSQADIQRAMSASTLILPLSTSASSVEVGRERLYKTPGEQGTKARKLRQATNASTTIPPAAGATAMTQLKEKERCSSLSKLLDEQHQAQQHSAHPQLYDLSRTQSCRVVQKPQRIFRATDLVIGEKLGEGFFGKVFKVTHRQSGEVMVLKELHRADEEAQRNFIKEVAVLRLLDHRHVLKFIGVLYKDKKLHMVTEYVAGGCLKELIHDPAQVLPWPQRVRLARDIACGMSYLHSMNIIHRDLNSMNCLVREDRSVIVADFGLARSVDAPRLPSGNMTPGGYGSGANSDAPMSPSGTLRRSKSRQRRQRYTVVGNPYWMAPEMMKGLKYDEKVDVFSFGIMLCEIIGRVEADPDFMPRNSDFSLNQQEFREKFCAQCPEPFVKVAFVCCDLNPDMRPCFETLHVWLQRLADDLAADRVPPERLLHEIETFQEWYASSEDALSPTSQRSLNNLDELVKSAVDSEISPVEKEKENMVIKPQDIPKSPHLGKDFSPSGERLRDSMRARRRQRFLGAQEERRNLTPDTESKERALKKALKKCRPFGERGYLVDLRAGAELQLEDVRDLNTYSDVDSSCDTSLNYHDVNNLPAAQEDENTVKPGKEELLEESTNKPSNQESQHHRLAIDDMRTRLNQCRSKFEHLEEASRRNFNQSQHSMKNFFKTPPVALKMFQRLEHEAAALNGGNNCPPPPPRTQRINQTPIFGRKNPPVAIVGQKLQHAESLEDLASSGVAKQLATPAPKRSKATATTKGGQSSNPPLFLPPSLNISVALNSNGNVTTTTNTNSSCPPSASDWLPKKHKLTLPLPSAQQQRTSSNHRLPMCNNKGKTLKPLPSRTGSQGIPASNCVSPTRSSRPGSPTKHLAQRHTAATAQRLTNAAATHQQQHQQQSSKTTRLNILSPEKVHRLGARLTDQKQKMREEAAATASSVGGAGCAAGTAAGSLNGHRTIGSSGTPNSAVGERRRRAAPSPPVRTHFNTRC |

From PMC3921104
